# According to PubChem BioAssay AID540276 (National Center for Advancing Translational Sciences (NCATS), 2011):
# Hit rate of the full screen: of about 300,000 compounds, about 5,400 (1.8%) were called active. The inconclusive results got no clear call from the source; some entries with a clear call stand among them for comparison. Calls follow the shape of the full dose curve; tested in HEK293 cells. Potencies of inconclusive entries are doubtful fits and often do not repeat.
# Test: qHTS for inhibitors of binding or entry into cells for Marburg Virus
# Settings: Marburg virus pseudotyped entry inhibition, cell reporter; series mostly up to 37.8 µM
# Potency is read from the fitted curve at half-maximal effect.
row,SMILES,Potency
1,COc1ccc(-c2noc(C3CCCN(C(=O)c4ccc(C)cc4)C3)n2)cc1 (configuration not stated),"inconclusive: 35.5 µM [inhibitor, single point]"
2,CCS(=O)(=O)c1ccc2oc(Nc3ccccc3C)nc2c1,inactive
3,COc1ccc(CNC(=O)c2ccc3c(c2)N(Cc2ccc(C)cc2)CCS3)cc1,"inconclusive: 8.91 µM [inhibitor, partial curve, poor fit]"
4,COc1cccc(-n2c(=O)c3sccc3n(CC(=O)NC3CCCCC3)c2=O)c1,inactive
5,Cc1ccccc1C(=O)Nc1ccc2nc(SCC(=O)N3CCc4ccccc43)sc2c1,"inconclusive: 2.82 µM [inhibitor, partial curve, poor fit]"
6,COc1ccc(/C(C)=N/NC(=S)NCCc2ccccc2)c(O)c1,"inconclusive: 2.82 µM [inhibitor, single point]"
7,COc1ccc(CSc2nc3ccncc3n2CC(=O)Nc2ccc(C)c(F)c2)cc1,inactive
8,Cc1cccc(NC(=O)c2ccc(NC(C)c3ccccc3)c([N+](=O)[O-])c2)n1 (configuration not stated),inactive
9,CCc1ccccc1NC(=O)Cn1c(=O)n(-c2ccc(CC(=O)NCC3CCCO3)cc2)c(=O)c2ccccc21 (configuration not stated),"inconclusive: 6.31 µM [activator, single point]"
10,O=[N+]([O-])c1ccc(OCCCOc2cccc3cccnc23)cc1,"inconclusive: 2.51 µM [activator, partial curve, poor fit]"
11,COc1ccc(NC(=O)Nc2ccc3c(c2)N(C)C(=O)CS3)cc1OC,"inconclusive: 18.4 µM [inhibitor, single point]"
12,CC12CC[C@H]3[C@@H](CCC4(O)C[C@H](O)CCC34/C=N/NC(=O)c3ccccc3[N+](=O)[O-])C1(O)CCC2C1=CC(=O)OC1 (some centres not stated),"inconclusive: 11.2 µM [inhibitor, partial curve, poor fit]"
13,CCOC(=O)c1ccc(S(=O)(=O)Nc2nc3cc(S(=O)(=O)NC4=NCCCCC4)ccc3s2)cc1,inactive
14,O=C(C1CCN(S(=O)(=O)c2cccc3cccnc23)CC1)N1CCc2ccccc21,"inconclusive: 12.6 µM [inhibitor, partial curve, poor fit]"
15,c1ccc2c(c1)C(=NCC1CCCO1)NC2=NCC1CCCO1 (configuration not stated),inactive
16,O=C(c1cccc(F)c1)N1CCCC(C(=O)N2CCN(c3ccccc3)CC2)C1 (configuration not stated),"inconclusive: 6.31 µM [inhibitor, single point]"
17,CCN(CC)C(=O)N1c2ccccc2CC(N(CC)CC)c2ccccc21 (configuration not stated),"inconclusive: 35.5 µM [inhibitor, single point]"
18,O=C(c1cc(-c2cccs2)nc2ccccc12)N1CCN(c2ccccc2)CC1,"inconclusive: 10 µM [inhibitor, partial curve, poor fit]"
19,O=c1c2c3c(sc2nc2n1CCCCC2)CCCC3,inactive
20,CCCOc1ccc(-c2nonc2NC(=O)c2cc(OC)c(OC)c(OC)c2)cc1OCCC,inactive
21,Cc1ccc2nsnc2c1S(=O)(=O)N(Cc1ccco1)Cc1cc2ccc(C)c(C)c2[nH]c1=O,active: 1.58 µM
22,COc1ccc(CNc2cc(C)nc3ccc(OC)cc23)cc1,"inconclusive: 14.1 µM [inhibitor, single point]"
23,Cn1c(CCNS(=O)(=O)c2ccccc2)nnc1SCc1cccnc1,inactive

# Exported with tabs: entries from further up.
row	SMILES	Potency
1	COc1ccc(-c2noc(C3CCCN(C(=O)c4ccc(C)cc4)C3)n2)cc1 (configuration not stated)	inconclusive: 35.5 µM [inhibitor, single point]
2	CCS(=O)(=O)c1ccc2oc(Nc3ccccc3C)nc2c1	inactive
3	COc1ccc(CNC(=O)c2ccc3c(c2)N(Cc2ccc(C)cc2)CCS3)cc1	inconclusive: 8.91 µM [inhibitor, partial curve, poor fit]
4	COc1cccc(-n2c(=O)c3sccc3n(CC(=O)NC3CCCCC3)c2=O)c1	inactive
5	Cc1ccccc1C(=O)Nc1ccc2nc(SCC(=O)N3CCc4ccccc43)sc2c1	inconclusive: 2.82 µM [inhibitor, partial curve, poor fit]
6	COc1ccc(/C(C)=N/NC(=S)NCCc2ccccc2)c(O)c1	inconclusive: 2.82 µM [inhibitor, single point]
7	COc1ccc(CSc2nc3ccncc3n2CC(=O)Nc2ccc(C)c(F)c2)cc1	inactive
8	Cc1cccc(NC(=O)c2ccc(NC(C)c3ccccc3)c([N+](=O)[O-])c2)n1 (configuration not stated)	inactive
9	CCc1ccccc1NC(=O)Cn1c(=O)n(-c2ccc(CC(=O)NCC3CCCO3)cc2)c(=O)c2ccccc21 (configuration not stated)	inconclusive: 6.31 µM [activator, single point]
10	O=[N+]([O-])c1ccc(OCCCOc2cccc3cccnc23)cc1	inconclusive: 2.51 µM [activator, partial curve, poor fit]
11	COc1ccc(NC(=O)Nc2ccc3c(c2)N(C)C(=O)CS3)cc1OC	inconclusive: 18.4 µM [inhibitor, single point]
12	CC12CC[C@H]3[C@@H](CCC4(O)C[C@H](O)CCC34/C=N/NC(=O)c3ccccc3[N+](=O)[O-])C1(O)CCC2C1=CC(=O)OC1 (some centres not stated)	inconclusive: 11.2 µM [inhibitor, partial curve, poor fit]
13	CCOC(=O)c1ccc(S(=O)(=O)Nc2nc3cc(S(=O)(=O)NC4=NCCCCC4)ccc3s2)cc1	inactive
14	O=C(C1CCN(S(=O)(=O)c2cccc3cccnc23)CC1)N1CCc2ccccc21	inconclusive: 12.6 µM [inhibitor, partial curve, poor fit]

# Continued:

row,SMILES,Potency
1,O=C(c1cc2ccccc2oc1=O)N(Cc1cccs1)Cc1cccs1,"inconclusive: 14.6 µM [inhibitor, partial curve, poor fit]"
2,O=C1CCC/C(=N\NC(=O)c2ccc(COc3cccc4cccnc34)cc2)C1,"inconclusive: 20 µM [activator, single point]"
3,CCOc1ccc(C(=O)OC2CCN(C)CC2)cc1,"inconclusive: 10 µM [activator, partial curve]"
4,CCCn1c(SCC(=O)Nc2ccccc2N2CCCCC2)nc2c1c(=O)n(C)c(=O)n2C,"inconclusive: 29.1 µM [inhibitor, single point]"
5,CC(=O)OC1c2c(ccc3ccc(=O)oc23)OC(C)(C)C1OC(=O)CC(C)C (configuration not stated),inactive
6,COCCNC(=O)c1c[nH]c2ccc(S(=O)(=O)Nc3ccc(F)cc3F)cc2c1=O,inactive
7,CCOC(=O)c1sc(NC(=O)c2ccc(OC(C)=O)cc2)nc1C,"inconclusive: 10 µM [inhibitor, partial curve, poor fit]"
8,NC(=NC(=O)c1ccc(OCC(F)(F)F)nc1)c1ccc(Cl)cc1,"inconclusive: 6.31 µM [activator, single point]"
9,Cc1ccc(Cn2ncc3c(N4CCN(Cc5ccc(Cl)cc5)CC4)ncnc32)cc1,active: 2.82 µM
10,COc1ccnc(Oc2ccccc2)c1C(=O)N/C=N/OCc1ccc(F)cc1Cl,"inconclusive: 32.6 µM [inhibitor, single point]"
11,COc1ccc(CNS(=O)(=O)NCc2ccc(C)cc2)cc1OC,"inconclusive: 35.5 µM [inhibitor, single point]"
12,O=C(Nc1ccc(Cc2ccncc2)cc1)c1cccs1,"inconclusive: 3.98 µM [activator, single point]"
13,CCOC(=O)c1ccc(NC(=O)CN2CCN(C(=O)c3ccco3)CC2)cc1,"inconclusive: 6.31 µM [inhibitor, partial curve, poor fit]"
14,Cc1cc2cc(CNC(=S)Nc3ccc(OC(F)F)cc3)ccc2n1C,inactive
15,COc1cc2c(cc1NC(=O)COc1ccc(Cl)cc1Br)oc1ccccc12,inactive
16,COc1ccc(CC(=O)OCC(=O)Nc2cccc(Cl)c2)cc1,"inconclusive: 6.31 µM [activator, full curve, poor fit]"
17,CCOC(=O)CSc1nnc2n(-c3ccccc3)c(=O)c3c4c(sc3n12)CC(C(C)(C)C)CC4 (configuration not stated),inactive
18,CC(=O)Nc1sc(N/N=C/c2ccccc2)nc1-c1ccc(C)cc1,inactive
19,O=C(NC(Cc1ccccc1)C(=O)N1CCN(c2ccccc2O)CC1)c1ccccc1 (configuration not stated),"inconclusive: 35.5 µM [inhibitor, partial curve, poor fit]"
20,CC(C)(C)NC(=O)CSc1nc2ccccc2c(=O)[nH]1,"inconclusive: 12.6 µM [activator, single point]"
21,O=C(CCN1CCN(CCO)CC1)Nc1ccc(OCc2ccccc2)cc1,"inconclusive: 0.164 µM [activator, full curve, poor fit]"
22,COc1ccc(-n2c(SCC(=O)C(C)(C)C)nc3ccsc3c2=O)cc1,"inconclusive: 3.16 µM [activator, full curve]"
23,O=C1NC(=S)N(c2ccccc2F)C(=O)/C1=C\c1cccs1,"inconclusive: 2 µM [inhibitor, full curve]"

row,SMILES,Potency
1,O=C(Nc1ccc(F)cc1)c1ccc(-n2cncn2)c([N+](=O)[O-])c1,"inconclusive: 35.5 µM [inhibitor, single point]"
2,O=C(O)CSc1c2c(nc3cc(C(=O)N4CCOCC4)ccc13)CCCC2,"inconclusive: 1.16 µM [inhibitor, single point]"
3,CC[C@H](C)[C@@H](NC(=O)O[C@@H]1C(=O)c2ccc(OC)cc2O[C@H]1c1ccc2c(c1)OCO2)C(=O)OC,"inconclusive: 1.68 µM [activator, partial curve, poor fit]"
4,CCOC(=O)c1nnn(-c2nonc2-n2cccc2)c1CCl,inactive
5,O=C(C=Cc1ccco1)c1ccc2ccccc2c1,"inconclusive: 3.98 µM [activator, single point]"
6,CCC(C)c1ccccc1N1CC(C(=O)Nc2ccc(S(=O)(=O)N3CCOCC3)cc2)CC1=O (configuration not stated),inactive
7,COc1ccc(OC)c(NC(=O)NCc2ccc(F)cc2)c1,"inconclusive: 6.51 µM [activator, partial curve, poor fit]"
8,CCOc1ccc(-c2nc(=S)[nH][nH]2)cc1,"inconclusive: 2.82 µM [activator, full curve]"
9,CC(C)NCC(O)COc1cccc2ccccc12 (configuration not stated),active: 0.794 µM
10,CCCCCn1c(C(Cc2ccccc2)NC(=O)COC)nc2ccccc21 (configuration not stated),inactive
11,O=C(CSc1nnc(SCc2ccccc2)s1)N/N=C/c1c(Cl)cccc1Cl,"inconclusive: 3.16 µM [activator, partial curve, poor fit]"
12,COc1ccccc1C(CNC(=O)CCNS(=O)(=O)c1ccc(Br)cc1)N1CCCC1 (configuration not stated),"inconclusive: 25.1 µM [inhibitor, single point]"
13,CCN(CC)CCCn1c2c(c(SCC(=O)Nc3ccc(F)c(F)c3)nc1=O)CCC2,"inconclusive: 35.5 µM [inhibitor, partial curve, poor fit]"
14,CC(C)CC(C)c1cc(N)nc2nc3ccccc3n12 (configuration not stated),"inconclusive: 5.62 µM [inhibitor, full curve, poor fit]"
15,Cc1cccc(-n2cnc3c(sc4nc(N5CCOCC5)c5c(c43)CCCC5)c2=O)c1,"inconclusive: 35.5 µM [inhibitor, single point]"
16,CC(C(=O)Nc1ccccc1-c1ccccc1)N1CCN(C(=O)c2ccco2)CC1 (configuration not stated),inactive
17,Cc1ccc(C(=O)O/N=C(\N)Cc2cccc3ccccc23)cc1,"inconclusive: 17.8 µM [inhibitor, partial curve, poor fit]"
18,COc1ccc(C2CC2/C(=N/O)c2ccccc2)cc1 (configuration not stated),inactive
19,Cc1ccc(N/N=C(\Cc2nc3ccccc3[nH]2)c2ccccc2)cc1,"inconclusive: 11.2 µM [inhibitor, partial curve, poor fit]"
20,OCC1OC(n2cnc3c(=S)nc[nH]c32)CC1O (configuration not stated),inactive
21,CCOC(=O)Cc1csc(NC(=O)CCCN2C(=O)c3ccccc3C2=O)n1,"inconclusive: 9.2 µM [activator, partial curve, poor fit]"
